Results published in ChEMBL document CHEMBL4316593 (Eur J Med Chem, 2019).
This continues a long series; more values of the same kind are listed elsewhere.

Tests used:
Type in all cases: cell-based
Settings in all cases: U-87MG ATCC
[1] = Inhibition of RTK/PI3K/AKT/mTOR signaling in human U87 cells assessed as down regulation of COPS9 gene expression at cytotoxic IC50 measured after 48 hrs relative to control
[2] = Inhibition of RTK/PI3K/AKT/mTOR signaling in human U87 cells assessed as down regulation of KANSL2 gene expression at cytotoxic IC50 measured after 48 hrs relative to control
[3] = Inhibition of RTK/PI3K/AKT/mTOR signaling in human U87 cells assessed as down regulation of NET1 gene expression at cytotoxic IC50 measured after 48 hrs relative to control
[4] = Inhibition of RTK/PI3K/AKT/mTOR signaling in human U87 cells assessed as down regulation of TP53I3 gene expression at cytotoxic IC50 measured after 48 hrs relative to control
[5] = Inhibition of RTK/PI3K/AKT/mTOR signaling in human U87 cells assessed as up regulation of SSBP4 gene expression at cytotoxic IC50 measured after 48 hrs relative to control
[6] = Inhibition of RTK/PI3K/AKT/mTOR signaling in human U87 cells assessed as down regulation of EFR3B gene expression at cytotoxic IC50 measured after 48 hrs relative to control
[7] = Inhibition of RTK/PI3K/AKT/mTOR signaling in human U87 cells assessed as down regulation of SLF1 gene expression at cytotoxic IC50 measured after 48 hrs relative to control
[8] = Inhibition of RTK/PI3K/AKT/mTOR signaling in human U87 cells assessed as up regulation of STT3B, catalytic subunit of the oligosaccharyltransferase complex gene expression at cytotoxic IC50 measured after 48 hrs relative to control
[9] = Inhibition of RTK/PI3K/AKT/mTOR signaling in human U87 cells assessed as up regulation of CUL4A gene expression at cytotoxic IC50 measured after 48 hrs relative to control
[10] = Inhibition of RTK/PI3K/AKT/mTOR signaling in human U87 cells assessed as up regulation of FAM162A gene expression at cytotoxic IC50 measured after 48 hrs relative to control
[11] = Inhibition of RTK/PI3K/AKT/mTOR signaling in human U87 cells assessed as down regulation of TSPYL2 gene expression at cytotoxic IC50 measured after 48 hrs relative to control
[12] = Inhibition of RTK/PI3K/AKT/mTOR signaling in human U87 cells assessed as up regulation of adenylate kinase 2 gene expression at cytotoxic IC50 measured after 48 hrs relative to control
[13] = Inhibition of RTK/PI3K/AKT/mTOR signaling in human U87 cells assessed as down regulation of PIP4K2C gene expression at cytotoxic IC50 measured after 48 hrs relative to control
[14] = Inhibition of RTK/PI3K/AKT/mTOR signaling in human U87 cells assessed as up regulation of unc-13 homolog A gene expression at cytotoxic IC50 measured after 48 hrs relative to control
[15] = Inhibition of RTK/PI3K/AKT/mTOR signaling in human U87 cells assessed as up regulation of LDLR gene expression at cytotoxic IC50 measured after 48 hrs relative to control
[16] = Inhibition of RTK/PI3K/AKT/mTOR signaling in human U87 cells assessed as down regulation of EIF2B2 gene expression at cytotoxic IC50 measured after 48 hrs relative to control
[17] = Inhibition of RTK/PI3K/AKT/mTOR signaling in human U87 cells assessed as down regulation of EPHX1 gene expression at cytotoxic IC50 measured after 48 hrs relative to control
[18] = Inhibition of RTK/PI3K/AKT/mTOR signaling in human U87 cells assessed as up regulation of myelin regulatory factor gene expression at cytotoxic IC50 measured after 48 hrs relative to control
[19] = Inhibition of RTK/PI3K/AKT/mTOR signaling in human U87 cells assessed as up regulation of ADAM metallopeptidase domain 10 gene expression at cytotoxic IC50 measured after 48 hrs relative to control
[20] = Inhibition of RTK/PI3K/AKT/mTOR signaling in human U87 cells assessed as up regulation of RAB3D, member RAS oncogene family gene expression at cytotoxic IC50 measured after 48 hrs relative to control
[21] = Inhibition of RTK/PI3K/AKT/mTOR signaling in human U87 cells assessed as down regulation of MELK gene expression at cytotoxic IC50 measured after 48 hrs relative to control
[22] = Inhibition of RTK/PI3K/AKT/mTOR signaling in human U87 cells assessed as up regulation of discoidin domain receptor tyrosine kinase 1 gene expression at cytotoxic IC50 measured after 48 hrs relative to control
[23] = Inhibition of RTK/PI3K/AKT/mTOR signaling in human U87 cells assessed as up regulation of membrane palmitoylated protein 7 gene expression at cytotoxic IC50 measured after 48 hrs relative to control
[24] = Inhibition of RTK/PI3K/AKT/mTOR signaling in human U87 cells assessed as up regulation of PATJ gene expression at cytotoxic IC50 measured after 48 hrs relative to control
[25] = Inhibition of RTK/PI3K/AKT/mTOR signaling in human U87 cells assessed as down regulation of FBXO30 gene expression at cytotoxic IC50 measured after 48 hrs relative to control
[26] = Inhibition of RTK/PI3K/AKT/mTOR signaling in human U87 cells assessed as down regulation of AZIN1 gene expression at cytotoxic IC50 measured after 48 hrs relative to control
[27] = Inhibition of RTK/PI3K/AKT/mTOR signaling in human U87 cells assessed as down regulation of CDKL5 gene expression at cytotoxic IC50 measured after 48 hrs relative to control
[28] = Inhibition of RTK/PI3K/AKT/mTOR signaling in human U87 cells assessed as down regulation of CDK11B gene expression at cytotoxic IC50 measured after 48 hrs relative to control
[29] = Inhibition of RTK/PI3K/AKT/mTOR signaling in human U87 cells assessed as down regulation of MPV17 gene expression at cytotoxic IC50 measured after 48 hrs relative to control
[30] = Inhibition of RTK/PI3K/AKT/mTOR signaling in human U87 cells assessed as down regulation of C3orf38 gene expression at cytotoxic IC50 measured after 48 hrs relative to control
[31] = Inhibition of RTK/PI3K/AKT/mTOR signaling in human U87 cells assessed as down regulation of SEMA4F gene expression at cytotoxic IC50 measured after 48 hrs relative to control
[32] = Inhibition of RTK/PI3K/AKT/mTOR signaling in human U87 cells assessed as down regulation of RINT1 gene expression at cytotoxic IC50 measured after 48 hrs relative to control

CC(=O)C(=NNc1ccccc1C#N)C(C)=O
log2FC [1]: -1.14 | log2FC [2]: -0.751 | log2FC [3]: -0.797 | log2FC [4]: -0.932 | log2FC [5]: 1.83 | log2FC [6]: -2.81 | log2FC [7]: -1.55 | log2FC [8]: 1.03 | log2FC [9]: 0.525 | log2FC [10]: 1.79 | log2FC [11]: -0.608 | log2FC [12]: 1.05 | log2FC [13]: -0.683 | log2FC [14]: 1.51 | log2FC [15]: 0.417 | log2FC [16]: -0.756 | log2FC [17]: -0.638 | log2FC [18]: 0.876 | log2FC [19]: 0.727 | log2FC [20]: 0.821 | log2FC [21]: -0.89 | log2FC [22]: 1.16 | log2FC [23]: 1.45 | log2FC [24]: 0.516 | log2FC [25]: -0.967 | log2FC [26]: -0.705 | log2FC [27]: -1.09 | log2FC [28]: -0.922 | log2FC [29]: -0.843 | log2FC [30]: -0.862 | log2FC [31]: -1.43 | log2FC [32]: -1.14
